Binding data for three molecules are collected here from paper PMC10741905.

Protein sequences, listed by entry. Tags and fused reporters are not part of them. Lines headed by an entry give the natural chain unless they say otherwise; changes in a name come on top.
UniProt I7MFN1: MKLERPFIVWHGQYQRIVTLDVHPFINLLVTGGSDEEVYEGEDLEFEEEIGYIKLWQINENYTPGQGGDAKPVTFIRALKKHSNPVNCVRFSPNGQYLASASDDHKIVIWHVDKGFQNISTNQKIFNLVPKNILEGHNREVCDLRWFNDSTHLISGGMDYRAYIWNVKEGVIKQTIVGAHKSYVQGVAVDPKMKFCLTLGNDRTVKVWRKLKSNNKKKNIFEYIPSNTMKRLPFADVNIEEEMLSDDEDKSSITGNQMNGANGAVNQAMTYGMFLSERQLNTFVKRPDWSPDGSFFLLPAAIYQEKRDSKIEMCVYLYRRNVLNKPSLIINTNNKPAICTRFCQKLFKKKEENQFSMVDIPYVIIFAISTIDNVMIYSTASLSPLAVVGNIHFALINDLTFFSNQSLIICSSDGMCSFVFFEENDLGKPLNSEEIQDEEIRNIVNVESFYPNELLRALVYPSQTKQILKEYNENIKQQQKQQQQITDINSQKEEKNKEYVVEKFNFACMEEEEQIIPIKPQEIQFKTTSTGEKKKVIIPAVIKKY
UniProt O76506: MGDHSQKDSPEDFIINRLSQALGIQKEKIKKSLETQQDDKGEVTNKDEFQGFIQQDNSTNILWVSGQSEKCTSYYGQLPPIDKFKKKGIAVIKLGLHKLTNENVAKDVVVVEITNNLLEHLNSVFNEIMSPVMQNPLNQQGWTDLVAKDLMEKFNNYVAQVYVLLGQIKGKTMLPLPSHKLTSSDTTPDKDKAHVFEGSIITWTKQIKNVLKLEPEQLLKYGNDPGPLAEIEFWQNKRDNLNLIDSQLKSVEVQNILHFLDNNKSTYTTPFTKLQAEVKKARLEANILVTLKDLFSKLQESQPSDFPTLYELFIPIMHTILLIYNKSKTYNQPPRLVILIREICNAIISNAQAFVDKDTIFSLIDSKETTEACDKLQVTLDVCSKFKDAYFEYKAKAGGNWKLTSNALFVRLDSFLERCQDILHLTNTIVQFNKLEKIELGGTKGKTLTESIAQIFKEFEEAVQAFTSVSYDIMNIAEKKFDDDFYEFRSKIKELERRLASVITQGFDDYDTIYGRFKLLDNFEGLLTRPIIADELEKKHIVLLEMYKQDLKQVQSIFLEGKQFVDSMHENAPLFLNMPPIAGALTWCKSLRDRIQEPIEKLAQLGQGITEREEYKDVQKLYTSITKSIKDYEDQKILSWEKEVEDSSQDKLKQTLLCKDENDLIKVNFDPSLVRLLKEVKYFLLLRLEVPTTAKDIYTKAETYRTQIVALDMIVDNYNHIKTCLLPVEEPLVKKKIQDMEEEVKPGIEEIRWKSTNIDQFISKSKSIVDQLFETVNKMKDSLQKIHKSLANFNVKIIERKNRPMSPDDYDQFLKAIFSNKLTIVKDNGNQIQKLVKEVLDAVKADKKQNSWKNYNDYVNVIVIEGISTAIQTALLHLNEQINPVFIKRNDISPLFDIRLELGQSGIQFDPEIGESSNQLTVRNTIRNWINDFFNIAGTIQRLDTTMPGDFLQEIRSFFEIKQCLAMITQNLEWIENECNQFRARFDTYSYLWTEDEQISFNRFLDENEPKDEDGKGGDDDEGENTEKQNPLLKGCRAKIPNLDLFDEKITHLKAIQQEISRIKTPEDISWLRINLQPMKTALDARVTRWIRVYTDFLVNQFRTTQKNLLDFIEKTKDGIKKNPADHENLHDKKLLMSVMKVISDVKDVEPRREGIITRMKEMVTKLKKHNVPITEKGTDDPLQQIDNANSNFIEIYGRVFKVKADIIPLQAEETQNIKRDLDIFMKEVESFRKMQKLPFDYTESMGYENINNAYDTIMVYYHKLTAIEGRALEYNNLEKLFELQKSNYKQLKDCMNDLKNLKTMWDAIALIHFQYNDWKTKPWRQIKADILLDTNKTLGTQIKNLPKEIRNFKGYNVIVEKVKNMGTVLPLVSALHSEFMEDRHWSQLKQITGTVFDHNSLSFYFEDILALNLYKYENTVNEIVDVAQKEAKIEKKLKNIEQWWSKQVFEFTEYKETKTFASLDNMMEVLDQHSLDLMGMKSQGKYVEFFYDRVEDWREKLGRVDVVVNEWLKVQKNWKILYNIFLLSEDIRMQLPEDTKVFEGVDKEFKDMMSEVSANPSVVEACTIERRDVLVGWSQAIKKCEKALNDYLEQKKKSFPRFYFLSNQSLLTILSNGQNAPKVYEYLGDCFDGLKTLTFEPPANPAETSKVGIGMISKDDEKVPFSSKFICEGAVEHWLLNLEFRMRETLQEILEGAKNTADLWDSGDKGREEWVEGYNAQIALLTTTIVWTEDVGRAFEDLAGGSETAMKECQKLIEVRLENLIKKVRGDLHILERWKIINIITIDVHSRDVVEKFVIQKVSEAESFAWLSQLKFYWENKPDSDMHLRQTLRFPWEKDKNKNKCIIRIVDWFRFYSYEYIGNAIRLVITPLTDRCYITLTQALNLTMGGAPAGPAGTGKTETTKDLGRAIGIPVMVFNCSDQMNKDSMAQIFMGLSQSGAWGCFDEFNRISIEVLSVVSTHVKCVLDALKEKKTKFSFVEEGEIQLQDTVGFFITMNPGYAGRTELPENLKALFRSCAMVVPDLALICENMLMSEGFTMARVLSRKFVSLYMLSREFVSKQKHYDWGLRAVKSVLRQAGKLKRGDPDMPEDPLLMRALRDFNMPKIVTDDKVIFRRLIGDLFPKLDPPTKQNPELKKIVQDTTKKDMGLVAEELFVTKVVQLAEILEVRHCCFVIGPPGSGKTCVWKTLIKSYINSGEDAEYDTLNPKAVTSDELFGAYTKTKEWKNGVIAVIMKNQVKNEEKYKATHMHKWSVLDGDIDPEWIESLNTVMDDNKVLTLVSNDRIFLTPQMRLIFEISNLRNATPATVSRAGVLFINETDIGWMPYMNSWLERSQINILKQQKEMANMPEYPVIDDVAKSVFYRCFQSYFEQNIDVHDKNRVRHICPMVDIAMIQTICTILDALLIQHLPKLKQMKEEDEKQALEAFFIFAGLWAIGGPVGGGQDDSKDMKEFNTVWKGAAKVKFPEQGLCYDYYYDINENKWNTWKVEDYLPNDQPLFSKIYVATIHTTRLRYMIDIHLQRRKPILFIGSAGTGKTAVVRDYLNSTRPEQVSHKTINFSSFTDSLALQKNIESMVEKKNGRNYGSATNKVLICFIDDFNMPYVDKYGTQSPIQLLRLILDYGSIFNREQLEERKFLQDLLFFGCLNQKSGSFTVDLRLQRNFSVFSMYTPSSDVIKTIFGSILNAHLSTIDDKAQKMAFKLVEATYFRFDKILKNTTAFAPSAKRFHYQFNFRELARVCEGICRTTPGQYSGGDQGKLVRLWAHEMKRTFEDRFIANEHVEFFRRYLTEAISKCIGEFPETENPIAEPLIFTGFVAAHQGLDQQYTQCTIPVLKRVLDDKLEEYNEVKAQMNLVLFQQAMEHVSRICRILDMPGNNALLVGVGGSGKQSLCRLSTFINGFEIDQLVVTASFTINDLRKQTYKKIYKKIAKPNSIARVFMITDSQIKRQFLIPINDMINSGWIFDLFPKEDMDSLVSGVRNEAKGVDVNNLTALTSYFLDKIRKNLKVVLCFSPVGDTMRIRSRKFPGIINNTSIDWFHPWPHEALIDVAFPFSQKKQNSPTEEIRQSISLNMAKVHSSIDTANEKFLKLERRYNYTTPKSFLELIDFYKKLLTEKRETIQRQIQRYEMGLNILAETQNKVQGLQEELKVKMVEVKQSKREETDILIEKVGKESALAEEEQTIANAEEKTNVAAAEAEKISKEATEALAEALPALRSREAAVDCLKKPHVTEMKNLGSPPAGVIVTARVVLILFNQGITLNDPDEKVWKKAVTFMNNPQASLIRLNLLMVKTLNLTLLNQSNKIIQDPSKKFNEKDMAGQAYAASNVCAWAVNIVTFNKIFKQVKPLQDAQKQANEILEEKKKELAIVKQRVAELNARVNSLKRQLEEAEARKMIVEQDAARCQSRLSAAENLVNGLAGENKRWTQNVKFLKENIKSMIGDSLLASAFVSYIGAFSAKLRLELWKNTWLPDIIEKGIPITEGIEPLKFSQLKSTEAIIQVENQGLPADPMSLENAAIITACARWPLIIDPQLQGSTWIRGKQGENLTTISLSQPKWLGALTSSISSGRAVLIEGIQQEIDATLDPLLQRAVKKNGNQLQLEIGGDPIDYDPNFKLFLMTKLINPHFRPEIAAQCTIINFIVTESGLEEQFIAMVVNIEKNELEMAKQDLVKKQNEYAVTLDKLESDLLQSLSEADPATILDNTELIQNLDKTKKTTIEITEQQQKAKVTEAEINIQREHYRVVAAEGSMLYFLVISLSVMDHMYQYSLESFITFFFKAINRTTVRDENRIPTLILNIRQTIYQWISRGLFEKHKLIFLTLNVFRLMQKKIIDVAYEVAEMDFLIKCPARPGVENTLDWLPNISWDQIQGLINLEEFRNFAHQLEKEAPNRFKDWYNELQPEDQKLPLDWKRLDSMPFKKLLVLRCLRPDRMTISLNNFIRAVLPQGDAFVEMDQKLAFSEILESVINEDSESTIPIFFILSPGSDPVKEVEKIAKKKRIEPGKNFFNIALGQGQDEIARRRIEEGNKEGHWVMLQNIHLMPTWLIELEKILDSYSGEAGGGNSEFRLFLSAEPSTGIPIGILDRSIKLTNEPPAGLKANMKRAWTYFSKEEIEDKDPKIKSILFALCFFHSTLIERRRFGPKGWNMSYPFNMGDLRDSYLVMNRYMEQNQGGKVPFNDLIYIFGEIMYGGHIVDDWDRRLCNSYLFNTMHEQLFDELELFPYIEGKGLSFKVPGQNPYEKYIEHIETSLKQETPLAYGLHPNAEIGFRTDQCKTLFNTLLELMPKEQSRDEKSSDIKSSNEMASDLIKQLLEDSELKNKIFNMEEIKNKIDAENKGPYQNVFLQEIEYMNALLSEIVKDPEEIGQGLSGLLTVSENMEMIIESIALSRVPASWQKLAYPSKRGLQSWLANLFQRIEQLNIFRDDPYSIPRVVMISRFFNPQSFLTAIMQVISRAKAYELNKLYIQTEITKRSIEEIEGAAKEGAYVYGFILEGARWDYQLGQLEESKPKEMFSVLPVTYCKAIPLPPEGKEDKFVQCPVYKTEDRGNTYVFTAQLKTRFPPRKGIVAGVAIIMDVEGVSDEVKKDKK

Where two headings read alike, the source gives them in different places. No constants are given. Whether binding was seen depends on the method and setting. Binding seen in cells or lysates may run through a third protein. A yes stands for co-enrichment or nearness to the bait. Other partners may have been found.

Holding throughout (test): affinity purification with mass spectrometry; lysate of conjugating cells 5 h post-pairing on anti-HA agarose beads overnight at 4 °C, seven washes with TBST; interactors: peptide ratio to wild-type cells more than 4
Assay [1] has as its target Caf1b-HA (Tetrahymena thermophila) (UniProt I7MFN1).
For assay [2], the target named is Hir1-HA (Tetrahymena thermophila) (UniProt Q23DP2).
Assay [3] deals with Caf1b-HA (Tetrahymena thermophila) (UniProt I7MFN1). This is another data set of the same source.

In the case of Dyh4 (from UniProt O76506 1-4589), the binding entry in assay [1] is on record as “binds”.

B1: pdd1 (programmed DNA degradation 1) (protein, UniProt Q94996 1-499)
chain: MFTVKSLQQFQAKKAINISIKKMSQKKSLKQKRKQDYSSDTEEEEEDQYEVEKILDSRFNPKTKQKEYLVKWENWPIEDSTWEPYEHLSNVKEIVQAFEKKQKANVMPQPTGPITRVNAQKDPQKKNRLSLNSSISKSLPQEEEIQTSKEDSKKQAVKKFQPASRRKSISSQSDSDLQAEEVPQQPESKKDKNDGAFEEPNNADADETELVFEEIVDKRILDGQTEYLIRFQNVSQPQWVDVGQLIAIKDDVIAYEDKIAAQSQLNKTKNLKENAKHSSQQQQSENNNLETEEVEEDKDSKKRSLLANSKRPTAKRSQPFNQDEEKEKSVTQPTSNLGSKGQSQQVEKEQATNSQTQQPQTAHRSGSRLSQIQSNANQVTQQAQQLSNTNNSSSTSLEVSSKMPSQMSQKRRPIELTEIQQGDFKTDNVDKIEIQGDFNDIMTSRFEVFWKIRQDNVTPASQVYSASYLRRYEPQVLIDFLLQHSNQSQLRQANQQLTH
Regarding B1, in assay [2], the binding result is given as “binds”.

B2: Smc4 (protein, UniProt Q6PUA5 1-1359)
chain: MNQESTSKVQAQMEEEIPTAKSVVKHTQSLLKNSVLRQNLAGKSEQRLIVKQIVLENFKSYQGRQVIGPFHKRFTSVVGPNGSGKSNLIESLLFVFGKKASWMRLKKLEQLIHNSSKHQNVKKASVEVTFHEIRDKEGEEYEVIPGTEFTVRRTVNKSSVSKYEINDKEVSHVEVTDTLKQKGIDLTNNRFLILQGEVEQISLMKPRSGDPEKPGLLEYLEDIIGSNQFKEDIEKKDEEYEVLQNERREKGERMRIHEADLEKLQESKNLAIEYIRNEKLSYQMTNIIGQIDLLRSKKDIEKFETKIKQNEQQNVEMREKFKQQLKENEQVIKEYKQSKAEIEKKDYEVQKYKGQLKKLNERDELIRQKLVLETENQTKAEKQLEDLQDEYKKAIRDQKEYQSELPEKQDRLRKLLTKKDDEDEKLRELKSKVNNENQKLVKEKKEMEKKLQPIKEKKLEVQSKRDTLQNRFTLISQDATAIQNEYEKNQNELEKAKQLIEDQHTLIKQIAQAIQAIEAGYEKQEADNKECRIIEEKIIKAISECKQKIDQTKQSNQDSQTRNKVLNELMIAQQQGKLRGICGRLGDLAAINEEYDVAITTACGQLDNIIVDRYDDAQNAVNYLRKEKIGKAQFIALDKIEHNRQYMEKQFQCPRGSQRLFDLIQFKDQKYKVAFYFALRNTLVCDNIDLATEIAYGQQRHRVVTKKGELIDDSGVMSGGGAARRGGVASQLKVEISPEEVERYQAEYSRNQQDLEQIRETIQNTNKQLNTFIQEKMYLVKQLEAKKFDQQLQEDNVTRCQNRLKALQKQMDEQEQNAKERQVIKQELEKFESEYHEYDGQIMELNKKITDIDEKINKSGGQELKQQQEICKNIQNQTLELQADVNKKTAKLKDLEKTLKNNEREKNETQERIKKIKASIDPLKDQQQKLEEDAVKVFKDQQQAGQQLAMLQEQQKQRDEQKAGIEKIIKDMKDALEKLKKEKDDFEAKINKAKEDQNRSEHVIANNRNTYKEITKSYDFLQFIDEIAGYQINESEDKKSDDQNNLDNISILEESIMQSMMDEEKNTQDKEDDEEIPENNDKQNKKIRSSKNTKKISSIDVYDDIGQELIEQLENHRESLKIEKAKAEEKLKSMTNDANITTITEFKNKYIEFKSKKEEFERVKNRISELKVDIDRLKKERFEKFMSGFNLISAKLKETYQTLTNGGDAELELIDSLDPFSDGVNFTVRPPKKSWKQISKLSGGEKTLSSLSLVFALHYYKPTPLYFMDEIDAALDFKNVSIVGNYIQERTKNAQFIIISLRNNMFELANKLVGVYKTYDTTKTIAIIPELIYQKIQHLNDDKTDTNQNQNEDKDNKSN
On to B2, for which the binding entry in assay [3] is listed as “binds”.
